For 25 compounds, T/C and survivor count results are on record in PubChem BioAssay AID328 (DTP/NCI, 2004).

Each structure is given as a SMILES string. The list does not hold the whole screen: it gathers tests that were run many times, whatever their T/C, doses with no T/C, and many T/C values between a quarter and a half above the control. Further doses and runs are listed elsewhere. T/C is the treated group as % of the vehicle group. Some doses have a count of surviving animals in place of a T/C: the source holds a T/C of zero for them, seemingly a mark for toxic or unscored doses. Some survivor counts are full or nearly so, which does not show that the dose was tolerated: survival well below the control is almost never listed, so the zero probably covers shortened survival too. Survivors were counted at the toxicity check, usually on the fifth day, unless a day is given; later deaths do not show. Schedule codes are those of the source, taken here to give the interval after Q, in days (D) or hours (H), and the number of doses after X. Some entries were tested several times; their values stand side by side, smallest first. Where survival is the endpoint, this PubChem deposit counts one and a half times the control or more as active, and values a quarter to a half above the control carry no call in these data; other NCI protocols may use other cut-offs. Some T/C values are followed by the survivors on the day toxicity was checked, most often the fifth; where none is given, no animal had died by that day.

The assay has as its system BDF1 mice, P388 leukemia ip, median survival T/C. In words: NCI In Vivo Anticancer Drug Screen. Data for tumor model P388 Leukemia (intraperitoneal) in B6D2F1 (BDF1) mice. The settings on record: T/C endpoint: median survival time, higher T/C = longer survival. The method, boiled down:
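Steps: implant the tumour, treat one group with compound and another with vehicle, record survival, then divide treated by control.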

Setting [1] is: dose: 200.0 mg/kg/injection, schedule: Q04DX003 (ip), vehicle: saline with Tween-80.
[2] abbreviates: dose: 400.0 mg/kg/injection, schedule: Q04DX003 (ip), vehicle: saline with Tween-80.
The mark [3] stands for this setting: dose: 50.0 mg/kg/injection, schedule: Q04DX003 (ip), vehicle: saline.
Where [4] appears, read: dose: 200.0 mg/kg/injection, schedule: Q01DX009 (ip), vehicle: saline.
Setting [5] is: dose: 100.0 mg/kg/injection, schedule: Q04DX003 (ip), vehicle: saline with Tween-80.

For `O=C(c1cc2c3ccccc3ccc2c2ccccc12)C(Br)Br`, the T/C runs as follows: (dose: 50.0 mg/kg/injection, schedule: Q01DX009 (ip), vehicle: saline with Tween-80) 127 % of control; (dose: 100.0 mg/kg/injection, schedule: Q01DX009 (ip), vehicle: saline with Tween-80) 127 % of control.

Regarding `CCCCCCC#CC(=O)O`, the survivor count by setting is: (dose: 400.0 mg/kg/injection, schedule: Q01DX009 (ip), vehicle: saline with Tween-80) 3 of 6; (dose: 400.0 mg/kg/injection, schedule: Q04DX003 (sc), vehicle: olive oil, sesame oil, peanut oil) 6 of 6.

Regarding `COc1cc2ccc3ccncc3c2cc1OC`, the survivor count (dose: 100.0 mg/kg/injection, schedule: Q01DX009 (ip), vehicle: saline) is reported as 1 of 6.

In the case of `COc1cc2cc(c1Cl)NC(=O)CC(OC(=O)C(C)N(C)C(C)=O)C1(C)OC1C(C)C1CC(O)(NC(=O)O1)C(OC)C=C/C=C(\C)C2` (stereo not drawn), the T/C by setting is: (dose: 1.6 micrograms/kg/injection, schedule: Q01DX009 (ip), vehicle: saline + alcohol) 130 % of control; (dose: 3.1 micrograms/kg/injection, schedule: Q01DX009 (ip), vehicle: saline + alcohol) 125 % of control.

Turning to `CC(C)CCCCCCCCCCCCC(=O)NCC(=O)NC1C(O)C(O)C(Nc2ncnc3nc[nH]c23)OC1C(O)CO` (stereo not drawn), the T/C reads like this: (dose: 0.04 mg/kg/injection, schedule: Q01DX010 (ip), vehicle: carboxymethylcellulose (CMC)) 130 % of control [5 of 6 alive]; (dose: 0.09 mg/kg/injection, schedule: Q01DX010 (ip), vehicle: steroid suspending solution) 135 % of control; (dose: 0.18 mg/kg/injection, schedule: Q01DX010 (ip), vehicle: steroid suspending solution) 140 % of control; (dose: 0.75 mg/kg/injection, schedule: Q01DX010 (ip), vehicle: steroid suspending solution) 140 % of control. Also, the survivor count by setting is: (dose: 0.25 mg/kg/injection, schedule: Q01DX010 (ip), vehicle: steroid suspending solution) 6 of 6; (dose: 0.5 mg/kg/injection, schedule: Q01DX010 (ip), vehicle: steroid suspending solution) 6 of 6; (dose: 1.0 mg/kg/injection, schedule: Q01DX010 (ip), vehicle: steroid suspending solution) 6 of 6; (dose: 1.5 mg/kg/injection, schedule: Q01DX010 (ip), vehicle: steroid suspending solution) 6 of 6; (dose: 3.0 mg/kg/injection, schedule: Q01DX010 (ip), vehicle: steroid suspending solution) 6 of 6.

Consider `O=c1c(Cl)c2cc3c(cc2c2ccccc12)nc1ccccc1n3-c1ccccc1`, for which the survivor count (dose: 50.0 mg/kg/injection, schedule: Q01DX001 (ip), vehicle: saline with Tween-80) was 6 of 6.

Regarding `Cc1c2ccc3ccccc3c2c[n+]2ccccc12`, where the note is “dose: 20.0 mg/kg/injection, schedule: Q01DX009 (ip), vehicle: saline with Tween-80”, the survivor count is recorded as 4 of 6.

Turning to `C=CCOCCC(=O)OCC=C`, the survivor count is on record as 6 of 6 (dose: 100.0 mg/kg/injection, schedule: Q01DX001 (ip), vehicle: Klucel (hydroxypropylcellulose) (HPC)); 6 of 6 (dose: 200.0 mg/kg/injection, schedule: Q01DX001 (ip), vehicle: Klucel (hydroxypropylcellulose) (HPC)); 5 of 6 (dose: 200.0 mg/kg/injection, schedule: Q04DX003 (ip), vehicle: Klucel (hydroxypropylcellulose) (HPC)); 5 of 6 (dose: 400.0 mg/kg/injection, schedule: Q01DX001 (ip), vehicle: Klucel (hydroxypropylcellulose) (HPC)); 5 of 6 (dose: 400.0 mg/kg/injection, schedule: Q04DX003 (ip), vehicle: Klucel (hydroxypropylcellulose) (HPC)).

Take `CC(=O)OC(C)(C)/C=C/C(=O)[C@](C)(O)[C@H]1[C@H](O)C[C@@]2(C)[C@@H]3CC=C4[C@@H](C=C(O)C(=O)C4(C)C)[C@]3(C)C(=O)C[C@]12C`: the T/C (dose: 4.0 mg/kg/injection, schedule: Q01DX009 (ip), vehicle: saline) is 135 % of control.

On to `NOCc1cccc(Cl)c1`, for which, under setting [1], the survivor count is listed as 6 of 6.

Regarding `O=c1c2ccccc2sc2c(CO)ccc(NCCN3CCCCC3)c12`, the T/C under setting [2] is 126 and 144 % of control.

As to `c1ccc(C[n+]2ccc3ccccc3c2)cc1`, the survivor count under setting [3] was 6 of 6.

As to `Cc1cc(Cl)nc(Nc2ccccc2)n1`, the survivor count (dose: 12.5 mg/kg/injection, schedule: Q01DX009 (ip), vehicle: DMSO) is listed as 6 of 6.

On to `O=C(O)c1ccc(N2C(=O)C=CC2=O)cc1` (tested in a mixture with another compound), for which the survivor count was 6 of 6 (dose: 6.25 mg/kg/injection, schedule: Q01DX009 (ip), vehicle: Klucel (hydroxypropylcellulose) (HPC)) and 0 of 6 (dose: 12.5 mg/kg/injection, schedule: Q01DX009 (ip), vehicle: Klucel (hydroxypropylcellulose) (HPC)).

Turning to `Oc1ccc(Nc2ccnc3cc(Cl)ccc23)cc1CN(CCCl)CCCl`, the T/C was 145 % of control (dose: 2.2 mg/kg/injection, schedule: Q04DX003 (ip), vehicle: saline); 135 % of control (dose: 5.0 mg/kg/injection, schedule: Q04DX003 (ip), vehicle: saline with Tween-80); 127 % of control (dose: 7.5 mg/kg/injection, schedule: Q04DX003 (ip), vehicle: saline). Further, the survivor count reads like this: (dose: 10.0 mg/kg/injection, schedule: Q01DX009 (ip), vehicle: saline) 4 of 6; (dose: 20.0 mg/kg/injection, schedule: Q04DX003 (ip), vehicle: saline with Tween-80) 4 of 6.

As for `Cc1nccnc1N`, the survivor count is, setting by setting: under setting [4], 3 of 6; (dose: 400.0 mg/kg/injection, schedule: Q04DX003 (ip), vehicle: saline) 6 of 6.

`CCC1OCCN1C(C)C` (stereo not drawn): under setting [4], the survivor count is given as 6 of 6.

For the compound `NCCCNCCCCNCCCN`, under “dose: 25.0 mg/kg/injection, schedule: Q01DX001 (ip), vehicle: saline”, the T/C was 129 % of control. Further, the survivor count (dose: 100.0 mg/kg/injection, schedule: Q01DX001 (ip), vehicle: saline) is 3 of 6 and the survivor count (dose: 200.0 mg/kg/injection, schedule: Q01DX001 (ip), vehicle: saline) is on record as 0 of 6.

For the compound `COCCOCCN1CCN(CCCN2c3ccccc3Sc3ccc(C(F)(F)F)cc32)CC1`, the T/C runs as follows: (dose: 12.5 mg/kg/injection, schedule: Q04DX003 (ip), vehicle: saline) 144 % of control; (dose: 25.0 mg/kg/injection, schedule: Q04DX003 (ip), vehicle: saline) 127 % of control [5 of 6 alive]. Further, the survivor count was 3 of 6 and 5 of 6 under setting [3]; 0 of 6 and 3 of 6 (dose: 100.0 mg/kg/injection, schedule: Q04DX003 (ip), vehicle: saline).

On to `CC(=O)OCC(=O)[C@@]1(O)CC[C@H]2[C@@H]3CCC4=CC(=O)CC[C@]4(C)[C@@]3(Cl)[C@@H](O)C[C@@]21C`, for which, under setting [5], the T/C is 131 % of control.

`CC12C=CC(=O)C=C1CCC1C3CCC(O)(C(=O)CO)C3(C)CC(O)C12F` (stereo not drawn): the survivor count (dose: 335.0 mg/kg/injection, schedule: Q04DX003 (sc), vehicle: steroid suspending solution) is 5 of 6.

`CCN(CC)CCCC(C)Nc1c2ccccc2nc2c(Cl)cccc12` (stereo not drawn): for the setting “dose: 100.0 mg/kg/injection, schedule: Q01DX009 (ip), vehicle: saline sonified”, the survivor count was 0 of 6.

Turning to `CN(C)C1CCCCC1`, the survivor count (dose: 12.5 mg/kg/injection, schedule: Q04DX003 (ip), vehicle: Klucel (hydroxypropylcellulose) (HPC)) is reported as 6 of 6.

Take `Cc1ncc([N+](=O)[O-])n1CCSC#N`: the survivor count is recorded as 0 of 6 under setting [5], 0 of 6 under setting [1] and 0 of 6 under setting [2].

In the case of `COc1cc(C2c3cc4c(cc3C(O)C3COC(=O)C23)OCO4)cc(O)c1OC` (stereo not drawn), the T/C (dose: 1.0 mg/kg/injection, schedule: Q01DX009 (ip), vehicle: saline) was 130 % of control.
